This experiment concerns the target embryonic lethal abnormal vision like RNA binding protein 1 (ELAVL1) (human (endogenous in A431 and HSC-5)) (UniProt Q15717). In words: co-IP; lysates of MG132-treated A431 and HSC-5 cells infected with sh-LINC00460 or sh-NC; Protein-A/G MagBeads with anti-ELAVL1 or anti-β-TrCP antibody overnight at 4 °C; western blotting with anti-ELAVL1 or anti-βTrCP. In general terms: A western blot detects proteins with antibodies after separation by electrophoresis.

Chains of the proteins cited; added tags and fusions are not shown.
UniProt Q15717: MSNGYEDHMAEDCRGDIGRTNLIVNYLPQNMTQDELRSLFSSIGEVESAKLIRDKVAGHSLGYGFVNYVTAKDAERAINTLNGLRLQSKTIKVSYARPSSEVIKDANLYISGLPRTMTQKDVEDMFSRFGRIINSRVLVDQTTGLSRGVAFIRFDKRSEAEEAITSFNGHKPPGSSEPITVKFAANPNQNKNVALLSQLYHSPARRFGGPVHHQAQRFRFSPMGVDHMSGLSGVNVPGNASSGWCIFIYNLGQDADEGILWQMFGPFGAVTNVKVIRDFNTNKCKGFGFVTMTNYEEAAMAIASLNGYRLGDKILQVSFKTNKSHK
UniProt Q9Y297: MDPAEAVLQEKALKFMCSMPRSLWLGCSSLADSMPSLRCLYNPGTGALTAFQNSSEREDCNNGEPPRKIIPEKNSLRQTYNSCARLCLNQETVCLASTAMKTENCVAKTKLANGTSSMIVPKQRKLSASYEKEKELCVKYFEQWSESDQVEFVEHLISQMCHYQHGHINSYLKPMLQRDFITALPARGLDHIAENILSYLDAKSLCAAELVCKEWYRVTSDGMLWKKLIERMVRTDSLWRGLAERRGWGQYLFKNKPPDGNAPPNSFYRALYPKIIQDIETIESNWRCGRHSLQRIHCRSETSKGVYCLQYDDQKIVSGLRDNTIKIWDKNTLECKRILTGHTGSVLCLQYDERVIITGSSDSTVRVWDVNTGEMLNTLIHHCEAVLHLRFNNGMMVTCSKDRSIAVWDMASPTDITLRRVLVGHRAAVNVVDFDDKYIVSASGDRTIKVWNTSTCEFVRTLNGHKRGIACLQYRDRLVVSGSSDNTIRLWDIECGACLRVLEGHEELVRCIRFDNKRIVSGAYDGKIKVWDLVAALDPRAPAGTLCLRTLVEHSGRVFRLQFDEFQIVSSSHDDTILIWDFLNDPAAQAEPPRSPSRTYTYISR

Results are given in words; binding and its absence hold for the method and conditions named. In cells and extracts the contact can be indirect. Some entries that bind do so weakly or less than the wild type.

On to “β-transducin repeats-containing protein (β-TrCP) (from UniProt Q9Y297 1-605)”, for which the binding result was “binds”.

These data come from publication PMC10352421.
